Data reported in PMC4931016.
No constants are given. Whether binding was seen depends on the method and setting. Binding seen in cells or lysates may run through a third protein. Some binding calls cover weakened binding; strength is not graded here.

By UniProt entry, the sequences of proteins in these tests, tags left out. Residues count along the entry.
UniProt P16056, residues 25-1379: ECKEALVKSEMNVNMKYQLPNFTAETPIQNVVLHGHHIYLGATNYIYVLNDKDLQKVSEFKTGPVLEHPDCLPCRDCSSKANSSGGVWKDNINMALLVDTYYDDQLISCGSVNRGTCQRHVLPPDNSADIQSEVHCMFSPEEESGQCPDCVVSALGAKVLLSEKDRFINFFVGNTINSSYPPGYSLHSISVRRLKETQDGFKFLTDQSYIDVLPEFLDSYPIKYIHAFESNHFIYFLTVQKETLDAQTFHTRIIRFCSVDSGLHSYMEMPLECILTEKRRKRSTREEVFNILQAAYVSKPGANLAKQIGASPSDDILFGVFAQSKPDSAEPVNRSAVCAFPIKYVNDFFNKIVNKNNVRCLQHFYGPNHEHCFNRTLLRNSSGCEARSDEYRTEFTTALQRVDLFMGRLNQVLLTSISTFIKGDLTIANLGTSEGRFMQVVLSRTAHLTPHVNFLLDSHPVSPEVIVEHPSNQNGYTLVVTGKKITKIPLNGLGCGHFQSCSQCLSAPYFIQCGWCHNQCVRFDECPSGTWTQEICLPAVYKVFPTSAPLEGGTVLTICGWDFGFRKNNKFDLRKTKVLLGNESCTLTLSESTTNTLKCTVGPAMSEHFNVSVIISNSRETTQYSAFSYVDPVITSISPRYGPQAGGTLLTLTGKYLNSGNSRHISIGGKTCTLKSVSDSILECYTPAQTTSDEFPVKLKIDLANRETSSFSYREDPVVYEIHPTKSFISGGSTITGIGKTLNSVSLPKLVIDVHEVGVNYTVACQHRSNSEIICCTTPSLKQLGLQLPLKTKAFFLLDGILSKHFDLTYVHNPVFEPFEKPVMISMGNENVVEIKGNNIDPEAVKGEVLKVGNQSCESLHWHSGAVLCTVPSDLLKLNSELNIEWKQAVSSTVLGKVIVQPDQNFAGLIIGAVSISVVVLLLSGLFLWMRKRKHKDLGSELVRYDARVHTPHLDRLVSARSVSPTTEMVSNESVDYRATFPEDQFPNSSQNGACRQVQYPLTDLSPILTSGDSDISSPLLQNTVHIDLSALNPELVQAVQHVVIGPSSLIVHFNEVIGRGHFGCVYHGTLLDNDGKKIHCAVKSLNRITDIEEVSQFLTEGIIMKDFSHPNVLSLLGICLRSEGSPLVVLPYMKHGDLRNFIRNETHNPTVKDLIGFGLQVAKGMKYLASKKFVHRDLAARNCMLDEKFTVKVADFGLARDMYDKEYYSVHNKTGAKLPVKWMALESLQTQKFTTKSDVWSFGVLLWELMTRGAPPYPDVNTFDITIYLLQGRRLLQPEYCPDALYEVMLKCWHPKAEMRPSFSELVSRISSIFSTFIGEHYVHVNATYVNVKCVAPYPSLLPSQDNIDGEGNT
UniProt P09055, residues 21-798: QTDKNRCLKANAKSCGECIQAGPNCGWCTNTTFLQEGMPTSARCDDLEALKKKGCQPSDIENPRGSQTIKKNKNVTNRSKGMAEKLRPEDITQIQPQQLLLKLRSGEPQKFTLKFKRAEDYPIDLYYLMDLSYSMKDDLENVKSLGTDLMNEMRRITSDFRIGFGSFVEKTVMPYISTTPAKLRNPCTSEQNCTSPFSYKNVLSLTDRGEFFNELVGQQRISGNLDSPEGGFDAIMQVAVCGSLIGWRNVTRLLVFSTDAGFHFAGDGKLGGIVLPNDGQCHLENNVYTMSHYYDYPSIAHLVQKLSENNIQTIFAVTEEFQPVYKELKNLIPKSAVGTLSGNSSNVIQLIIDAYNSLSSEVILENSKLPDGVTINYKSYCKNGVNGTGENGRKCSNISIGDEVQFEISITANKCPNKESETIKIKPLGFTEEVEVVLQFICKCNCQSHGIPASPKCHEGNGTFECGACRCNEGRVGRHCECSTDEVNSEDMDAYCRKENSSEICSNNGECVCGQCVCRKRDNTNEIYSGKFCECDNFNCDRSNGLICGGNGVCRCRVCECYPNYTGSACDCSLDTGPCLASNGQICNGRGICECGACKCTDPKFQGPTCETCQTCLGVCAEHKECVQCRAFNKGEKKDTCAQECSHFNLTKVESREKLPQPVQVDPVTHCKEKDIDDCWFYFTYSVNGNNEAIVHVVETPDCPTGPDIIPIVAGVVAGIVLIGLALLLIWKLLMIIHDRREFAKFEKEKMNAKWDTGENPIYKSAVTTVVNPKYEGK

Columns and labels:
[1] = molecular target: c-Met (hepatocyte growth factor receptor), endogenous in β1A and β1A-YYFF cells (mouse (endogenous in β1A cells)) (UniProt P16056); assay: co-IP; β1A (and β1A-YYFF) cells, HGF for 0 or 120 min; lysis in 0.5% Triton X-100, 20 mM Tris pH 7.5, 150 mM NaCl; immunoprecipitation with c-Met B2 antibody on protein A/G agarose beads, 4 °C; IgG and beads-only controls; western blot
[2] = molecular target: c-Met (hepatocyte growth factor receptor), endogenous in β1A and β1A-YYFF cells (mouse (endogenous in β1A cells)) (UniProt P16056); assay: co-IP; β1A cells, HGF for 0 or 120 min; cell surface proteins biotinylated at 4 °C and removed by streptavidin pull-down; immunoprecipitation with c-Met B2 antibody or IgG control on the intracellular fractions; western blot

binding [1]: binds | binding [2]: binds
Substance: β1-integrin (wild-type β1A) re-expressed in β1-integrin null GD25 cells (from UniProt P09055-1 21-798) (receptor)
